PubChem BioAssay AID504791 | Drosophila RNAi Screening Center – 2011
Test: 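Factors in Argonaute-based small RNA production and activity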 (primary screen). Cell system: Drosophila S2-derived reporter cells. Reagents: long dsRNA against Drosophila genes, about 150-250 ng dsRNA per well (siRNA assay); about 80-120 ng (miRNA assay). Duration: about 5 days (siRNA assay); about 4 days (miRNA assay). Conditions: copper sulfate induction of reporters: 25 µM (siRNA assay); 200 mM stated (miRNA assay), 1-2 days before reading. Measurement: 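Per-well ratio of Renilla over firefly light, expressed relative to that plate's average ratio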. Reading the numbers: siRNA reporter hit score: higher = 3 marks a strong hit with raised ratio; -3 a strong hit with lowered ratio. Rule for the call: 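a well was a first-pass pick when its plate-scaled ratio rose above 1.5 (siRNA assay) or 1.6 (miRNA assay), or dropped below 0.6; a gene counted only if two separate dsRNAs agreed on retest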.
The deposit covers about 23,000 reagents; below is an unselected part of those with a known target gene and a result. Over the whole deposit, 199 (0.86%) are marked active. 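Plate-scaled ratios behind the calls are not deposited; printed light signals are raw; many rows marked increased or decreased are still called inactive.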 Reagent sequences are not shown.

| gene knocked down | DRSC id | siRNA reporter hit score | stable siRNA reporter change | miRNA reporter change | stable assay Renilla, run 1 (luminescence) | stable assay firefly, run 1 (luminescence) | outcome |
| --- | --- | --- | --- | --- | --- | --- | --- |
| CG32195 | DRSC09533 | – | – | – | 6211 | 3.35e5 | inactive |
| CG5376 | DRSC15782 | – | – | – | 7564 | 3.97e5 | inactive |
| Vps29 | DRSC00666 | – | – | – | 15654 | 1.14e5 | inactive |
| CG4325 | DRSC18516 | – | – | – | 5120 | 2.14e5 | inactive |
| CG4325 | DRSC23171 | – | – | – | 5111 | 4.37e5 | inactive |
| CG4424 | DRSC15576 | – | – | – | 7639 | 2.62e5 | inactive |
| sano | DRSC06165 | – | – | – | 11449 | 4.42e5 | inactive |
| hng2 | DRSC16412 | – | – | – | 7959 | 4.40e5 | inactive |
| CG8321 | DRSC07148 | – | – | – | 8575 | 3.42e5 | inactive |
| CG11034 | DRSC02121 | – | – | – | 7283 | 3.88e5 | inactive |
| CG11034 | DRSC02122 | – | – | – | 8528 | 5.20e5 | inactive |
| Gr22f | DRSC00076 | – | – | – | 5352 | 3.93e5 | inactive |
| Cat | DRSC11110 | – | – | – | 6367 | 4.15e5 | inactive |
| Mat89Ba | DRSC14540 | – | – | – | 7235 | 3.18e5 | inactive |
| Sesn | DRSC04101 | – | – | – | 69649 | 1.57e6 | inactive |
| Sesn | DRSC04102 | – | – | – | 5915 | 4.97e5 | inactive |
| Sesn | DRSC04103 | – | – | – | 7358 | 3.89e5 | inactive |
| olf186-M | DRSC07657 | – | – | – | 4747 | 3.13e5 | inactive |
| mTTF | DRSC01909 | – | – | – | 6759 | 4.36e5 | inactive |
| ADD1 | DRSC07135 | – | – | – | 7414 | 3.61e5 | inactive |
| kug | DRSC10911 | – | – | – | 8414 | 3.21e5 | inactive |
| Cnb | DRSC08569 | – | – | – | 8783 | 2.60e5 | inactive |
| CG14963 | DRSC08422 | – | – | – | 6880 | 4.68e5 | inactive |
| CG11291 | DRSC04097 | – | – | – | 6599 | 4.45e5 | inactive |
| Tbh | DRSC18723 | – | – | – | 5676 | 2.80e5 | inactive |
| l(2)41Ab | DRSC21007 | – | – | – | 3999 | 3.95e5 | inactive |
| CG10165 | DRSC02017 | – | – | – | 1.56e5 | 1.46e6 | inactive |
| CG33506 | DRSC05981 | – | – | – | 7846 | 5.15e5 | inactive |
| Ppt1 | DRSC17806 | – | – | – | 6007 | 3.34e5 | inactive |
| CG2604 | DRSC12313 | – | – | – | 6982 | 4.34e5 | inactive |
| Rgk3 | DRSC04250 | – | – | – | 7811 | 6.38e5 | inactive |
| Rgk3 | DRSC04251 | – | – | – | 6759 | 3.76e5 | inactive |
| Rgk3 | DRSC04254 | – | – | – | 6199 | 3.57e5 | inactive |
| Rgk3 | DRSC04255 | – | – | – | 7111 | 3.75e5 | inactive |
| Tat | DRSC19602 | – | – | – | 6246 | 5.32e5 | inactive |
| Elp5 | DRSC08547 | – | – | – | 5779 | 3.50e5 | inactive |
| Nep1 | DRSC18388 | – | – | – | 7487 | 3.54e5 | inactive |
| Nep1 | DRSC18389 | – | – | – | 4372 | 1.74e5 | inactive |
| ATP6 (retired record) | DRSC21278 | – | – | – | 5672 | 4.49e5 | inactive |
| Rim2 | DRSC00073 | – | – | – | 4922 | 3.99e5 | inactive |
| Rim2 | DRSC00520 | – | – | – | 11418 | 6.13e5 | inactive |
| Rim2 | DRSC22699 | – | – | – | 3775 | 3.58e5 | inactive |
| CG7542 | DRSC10868 | – | – | – | 7942 | 3.64e5 | inactive |
| fru | DRSC16951 | – | reporter ratio raised past the hit cutoff | – | 6112 | 1.91e5 | inactive |
| fru | DRSC16952 | – | – | – | 4147 | 3.32e5 | inactive |
| fru | DRSC16953 | – | – | – | 5375 | 4.54e5 | inactive |
| fru | DRSC21600 | – | – | – | 7795 | 3.89e5 | inactive |
| Rrp5 | DRSC15862 | – | – | – | 8967 | 3.75e5 | inactive |
| yl | DRSC20387 | – | – | – | 4740 | 3.46e5 | inactive |
| lectin-46Ca | DRSC06612 | – | – | – | 4576 | 4.04e5 | inactive |
| Pgd | DRSC18697 | – | – | – | 7607 | 3.62e5 | inactive |
| viaf | DRSC10326 | – | – | – | 6563 | 3.03e5 | inactive |
| Prosalpha7 | DRSC07516 | -3 | reporter ratio raised past the hit cutoff | – | 9279 | 2.64e5 | active |
| RFeSP | DRSC00702 | – | – | – | 7983 | 5.81e5 | inactive |
| mmm | DRSC10208 | – | – | – | 6247 | 3.63e5 | inactive |
| Vps28 | DRSC06168 | – | – | – | 8725 | 4.74e5 | inactive |
| CG3546 | DRSC18308 | – | – | reporter ratio lowered past the hit cutoff | 3632 | 3.23e5 | inactive |

Not a retest: an excerpt of the list.
| gene knocked down | DRSC id | siRNA reporter hit score | stable siRNA reporter change | miRNA reporter change | stable assay Renilla, run 1 (luminescence) | stable assay firefly, run 1 (luminescence) | outcome |
| --- | --- | --- | --- | --- | --- | --- | --- |
| Rgk3 | DRSC04251 | – | – | – | 6759 | 3.76e5 | inactive |
| Rgk3 | DRSC04254 | – | – | – | 6199 | 3.57e5 | inactive |
| Rgk3 | DRSC04255 | – | – | – | 7111 | 3.75e5 | inactive |
| Tat | DRSC19602 | – | – | – | 6246 | 5.32e5 | inactive |
| Elp5 | DRSC08547 | – | – | – | 5779 | 3.50e5 | inactive |
| Nep1 | DRSC18388 | – | – | – | 7487 | 3.54e5 | inactive |
| Nep1 | DRSC18389 | – | – | – | 4372 | 1.74e5 | inactive |
